In this data set the target is TOP3A 1001 (full-length) (Homo sapiens) (UniProt Q13472). Put plainly: EMSA. The conditions noted are these: no Mg2+ added, lower binding than TOP3A 917; 25 mM HEPES pH 7.5, 70 mM NaCl, 100 ug/ml BSA, 1 mM DTT, 10% glycerol, 10 fmol DNA in 20 ul, 37 C 15 min; 8% PAGE in 0.5x TBE at 4 C; recombinant protein; residues 16-1001; label: 5' 32P; single-stranded DNA.

Protein sequences, listed by entry. Tags and fused reporters are not part of them. Residues count along the entry.
UniProt Q13472, 16-1001: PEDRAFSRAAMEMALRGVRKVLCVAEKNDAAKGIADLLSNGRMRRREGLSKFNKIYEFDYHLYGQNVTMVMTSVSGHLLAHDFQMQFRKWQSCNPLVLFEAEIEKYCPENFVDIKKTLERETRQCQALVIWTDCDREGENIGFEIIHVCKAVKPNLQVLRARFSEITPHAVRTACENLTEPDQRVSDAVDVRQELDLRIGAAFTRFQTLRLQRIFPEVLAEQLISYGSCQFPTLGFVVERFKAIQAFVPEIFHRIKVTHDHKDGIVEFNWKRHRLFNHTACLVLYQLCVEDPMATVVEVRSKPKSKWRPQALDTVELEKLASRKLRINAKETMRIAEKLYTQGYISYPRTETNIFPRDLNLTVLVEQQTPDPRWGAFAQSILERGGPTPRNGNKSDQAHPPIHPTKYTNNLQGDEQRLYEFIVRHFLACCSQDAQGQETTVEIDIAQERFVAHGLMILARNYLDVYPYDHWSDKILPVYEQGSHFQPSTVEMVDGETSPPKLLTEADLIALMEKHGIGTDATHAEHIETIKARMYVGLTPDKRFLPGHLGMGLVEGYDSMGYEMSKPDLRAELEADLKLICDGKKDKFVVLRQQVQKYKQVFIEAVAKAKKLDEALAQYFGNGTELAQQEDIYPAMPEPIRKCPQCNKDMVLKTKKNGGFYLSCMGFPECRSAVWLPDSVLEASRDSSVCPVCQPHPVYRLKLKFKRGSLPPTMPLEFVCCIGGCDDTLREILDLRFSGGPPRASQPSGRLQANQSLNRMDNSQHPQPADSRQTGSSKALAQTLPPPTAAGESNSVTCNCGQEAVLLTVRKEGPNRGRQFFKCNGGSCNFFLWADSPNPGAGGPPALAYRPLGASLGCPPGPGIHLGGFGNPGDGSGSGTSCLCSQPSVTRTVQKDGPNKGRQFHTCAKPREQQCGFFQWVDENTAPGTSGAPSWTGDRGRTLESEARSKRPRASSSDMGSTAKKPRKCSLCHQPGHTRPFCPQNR

A weaker result is weaker than the reference pair of the same experiment.

As for “TGTTATTATTATGTCCTACAAGCATTAATTAATTAACACA [EMSA substrate (40 nt ssDNA)]”, the binding result is given as “binds more weakly”.

Values taken from paper PMC12585908.
